Reference: publication PMC5046110
The exact form of at least one protein or probe is not confirmed. Negatives hold for the conditions tested.

Tested on: MBP-GmDREBL (Glycine max)
Assay: EMSA
Details: LightShift Chemiluminescent EMSA Kit (Thermo), manufacturer's instructions, pH and temperature not stated, recombinant protein, protein details: MBP (N-terminal, pMAL-c5x)

| Sequence | binding result (100-fold unlabelled probe used as competitor in lane 3) | binding result |
| --- | --- | --- |
| TTTGTATTAGTACTCCCGACGTTTTTATTGTGTTT (double strand) [WRI1 promoter DRE probe] | binds |  |
| TTTGTATTAGTACTCTTATTGTTTTTATTGTGTTT (double strand) [WRI1 promoter mutant probe (CCGAC to TTATT)] |  | no binding |
